Data as given in PubChem BioAssay AID652259 (Drosophila RNAi Screening Center, 2013)
The deposit covers about 22,000 reagents; this is an unselected part of those that have a named target and a result. Of all reagents, 233 (1.1%) were called active. 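Light values are raw, unnormalised plate reads; the ratio scores behind the reporter calls were not deposited.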 Reagent sequences are not shown. The record does not give: the amount of reagent, the time to read-out, the dose of the treatment.

Test: 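Knock-downs that push a Wingless-driven reporter up or down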 (primary screen)
Cell system: Drosophila clone 8 imaginal disc epithelial cells
Reagent: long dsRNA against Drosophila genes
Treatment: pathway stimulated by co-transfected Wingless expression plasmid
Measurement: 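Dual luciferase reads per well after Wingless plasmid stimulation: reporter firefly light and Renilla control light; activity is firefly divided by Renilla, a ratio not deposited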
Direction: firefly reporter light: higher = more Wg reporter light, before normalisation; Renilla control light: higher = more transfected or surviving cells
Rule for the call: 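Strong candidates differ from their plate mean by at least two out of four per-plate statistical tests; weak candidates meet just one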
Calls: active = candidate regulator (raises or lowers reporter); inactive = not a candidate

IFT43 (Intraflagellar transport 43) [DRSC02892] scored firefly reporter light, replicate 1 = 7154; Renilla control light, replicate 1 = 2723; inactive. Silencing of ppk26 (pickpocket 26) [DRSC10991] resulted in: firefly reporter light, replicate 1 = 977; firefly reporter light, replicate 2 = 6932; Renilla control light, replicate 1 = 1234; Renilla control light, replicate 2 = 3072; inactive. After knock-down of CG31826 [DRSC03357], the screen gave firefly reporter light, replicate 1 = 4656; firefly reporter light, replicate 2 = 6807; Renilla control light, replicate 1 = 1424; Renilla control light, replicate 2 = 3104; inactive. Silencing of CG13247 [DRSC11695] resulted in: firefly reporter light, replicate 1 = 22355; Renilla control light, replicate 1 = 7494; inactive. For GlyRS (Glycyl-tRNA synthetase) [DRSC10711], the values are firefly reporter light, replicate 1 = 3008; Renilla control light, replicate 1 = 1383; inactive. For TORIP (Torsin interacting protein) [DRSC10104], the values are firefly reporter light, replicate 1 = 4392; Renilla control light, replicate 1 = 1652; inactive.

VAChT (Vesicular acetylcholine transporter) [DRSC13311] showed firefly reporter light, replicate 1 = 4156; Renilla control light, replicate 1 = 1792; inactive. Knock-down of VAChT (Vesicular acetylcholine transporter) [DRSC16608] gave: firefly reporter light, replicate 1 = 1532; firefly reporter light, replicate 2 = 5168; Renilla control light, replicate 1 = 778; Renilla control light, replicate 2 = 904; inactive. After knock-down of CtsK2 (Cathepsin K2) [DRSC06897] the results were firefly reporter light, replicate 1 = 12102; Renilla control light, replicate 1 = 3636; inactive. For CG42857 [DRSC12750], the values are firefly reporter light, replicate 1 = 1895; Renilla control light, replicate 1 = 1184; inactive. After knock-down of al (aristaless) [DRSC00799], the screen gave firefly reporter light, replicate 1 = 3840; firefly reporter light, replicate 2 = 10763; Renilla control light, replicate 1 = 1426; Renilla control light, replicate 2 = 4144; inactive. After knock-down of spaw (spacewatch) [DRSC06824], the screen gave firefly reporter light, replicate 1 = 2215; firefly reporter light, replicate 2 = 6160; Renilla control light, replicate 1 = 433; Renilla control light, replicate 2 = 1765; inactive.

Silencing of Caf1-55 (Chromatin assembly factor 1, p55 subunit) [DRSC16596] resulted in: firefly reporter light, replicate 1 = 6039; Renilla control light, replicate 1 = 2587; inactive. CG30458 [DRSC06660] showed firefly reporter light, replicate 1 = 10536; firefly reporter light, replicate 2 = 6.24e5; Renilla control light, replicate 1 = 4875; Renilla control light, replicate 2 = 1.98e5; inactive. Rph (Rabphilin) [DRSC17790] gave firefly reporter light, replicate 1 = 15913; Renilla control light, replicate 1 = 7408; inactive. For Arp5 (Actin-related protein 5) [DRSC16350], the values are firefly reporter light, replicate 1 = 2544; firefly reporter light, replicate 2 = 7337; Renilla control light, replicate 1 = 871; Renilla control light, replicate 2 = 1469; inactive.

An excerpt from the list above:
spaw (spacewatch) [DRSC06824] → firefly reporter light, replicate 1 = 2215; firefly reporter light, replicate 2 = 6160; Renilla control light, replicate 1 = 433; Renilla control light, replicate 2 = 1765; call = inactive
Caf1-55 (Chromatin assembly factor 1, p55 subunit) [DRSC16596] → firefly reporter light, replicate 1 = 6039; Renilla control light, replicate 1 = 2587; call = inactive
CG30458 [DRSC06660] → firefly reporter light, replicate 1 = 10536; firefly reporter light, replicate 2 = 6.24e5; Renilla control light, replicate 1 = 4875; Renilla control light, replicate 2 = 1.98e5; call = inactive
Rph (Rabphilin) [DRSC17790] → firefly reporter light, replicate 1 = 15913; Renilla control light, replicate 1 = 7408; call = inactive
Arp5 (Actin-related protein 5) [DRSC16350] → firefly reporter light, replicate 1 = 2544; firefly reporter light, replicate 2 = 7337; Renilla control light, replicate 1 = 871; Renilla control light, replicate 2 = 1469; call = inactive

Further records:
Depletion of ari-2 (ariadne 2) [DRSC04672] gave: firefly reporter light, replicate 1 = 2192; firefly reporter light, replicate 2 = 6625; Renilla control light, replicate 1 = 684; Renilla control light, replicate 2 = 2500; inactive. CG6126 [DRSC15971] gave firefly reporter light, replicate 1 = 3431; firefly reporter light, replicate 2 = 6931; Renilla control light, replicate 1 = 1511; Renilla control light, replicate 2 = 2712; inactive. mesh [DRSC14472] gave firefly reporter light, replicate 1 = 3601; firefly reporter light, replicate 2 = 4871; Renilla control light, replicate 1 = 1380; Renilla control light, replicate 2 = 1465; inactive. With knock-down of mesh [DRSC15098] the results were firefly reporter light, replicate 1 = 8691; Renilla control light, replicate 1 = 3626; inactive. For mesh [DRSC15099], the entry reads firefly reporter light, replicate 1 = 5961; Renilla control light, replicate 1 = 2436; inactive. Against Agps (Alkylglycerone phosphate synthase) [DRSC05984], the entry reads firefly reporter light, replicate 1 = 6251; Renilla control light, replicate 1 = 2069; inactive.

For r-cup (ryder cup) [DRSC20475], the entry reads firefly reporter light, replicate 1 = 17904; Renilla control light, replicate 1 = 7734; inactive. With knock-down of CG12729 [DRSC17884] the results were firefly reporter light, replicate 1 = 17812; Renilla control light, replicate 1 = 8355; inactive. Against Tbc1d15-17 (TBC1 domain family member 15/17) [DRSC00313], the values are firefly reporter light, replicate 1 = 9047; Renilla control light, replicate 1 = 3600; inactive. Depletion of CG9132 [DRSC20159] gave: firefly reporter light, replicate 1 = 2010; firefly reporter light, replicate 2 = 5335; Renilla control light, replicate 1 = 856; Renilla control light, replicate 2 = 2567; inactive. For MBD-R2 [DRSC14180], the entry reads firefly reporter light, replicate 1 = 15668; Renilla control light, replicate 1 = 1624; inactive. For wol (wollknaeuel) [DRSC03077], the values are firefly reporter light, replicate 1 = 9112; Renilla control light, replicate 1 = 4848; inactive.

lncRNA:CR30055 (long non-coding RNA:CR30055) [DRSC22439] showed firefly reporter light, replicate 1 = 5.67e5; firefly reporter light, replicate 2 = 5.42e5; Renilla control light, replicate 1 = 1.78e5; Renilla control light, replicate 2 = 1.44e5; inactive. For CG6230 [DRSC01989], the entry reads firefly reporter light, replicate 1 = 7545; Renilla control light, replicate 1 = 2835; inactive. For CG43077 [DRSC19168], the entry reads firefly reporter light, replicate 1 = 3177; Renilla control light, replicate 1 = 1301; inactive. With knock-down of CG5065 [DRSC06912] the results were firefly reporter light, replicate 1 = 6064; Renilla control light, replicate 1 = 1990; inactive.
